# Library compounds against nucleic acid targets

Data from the ROBIN nucleic acid binder screens, doi:10.1002/anie.202211358.

Targets, with sequences 5′ to 3′:
PreQ1: PreQ1 riboswitch RNA pseudoknot, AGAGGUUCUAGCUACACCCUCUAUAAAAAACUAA. From B. subtilis. About 170 hits among about 24,000 compounds.
SAM-II: SAM-II riboswitch RNA pseudoknot, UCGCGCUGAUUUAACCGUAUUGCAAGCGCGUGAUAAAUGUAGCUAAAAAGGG. About 200 hits among about 21,000 compounds.
TPP: TPP riboswitch RNA three-way junction, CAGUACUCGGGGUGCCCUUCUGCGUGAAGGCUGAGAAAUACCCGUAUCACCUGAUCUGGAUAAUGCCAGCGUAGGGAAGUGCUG. About 160 hits among about 24,000 compounds.

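Compounds were printed on reactive glass slides in duplicate spots, a dye-labelled oligonucleotide was laid over them, and the fluorescence left after washing was read. For the PreQ1, TPP and SAM-II riboswitches the laboratory earlier reported (doi:10.1038/s41467-019-09493-3) 1 µM RNA, 2 h, and a rule that included a mean Z-score above 3 (spot signal-to-noise against the whole library), a score well above that on a control array, and duplicate spots agreeing (coefficient of variation under 100). The data file gives only the calls; its cut-offs may differ, and compounds hitting several targets are kept. A missing hit is not proof of no binding, and a hit is not a measured affinity.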 Key: active = hit, inactive = tested without a hit. This is an unselected part of the compounds tested. A target missing from an entry has no call listed here.

For COc1cc2nc(N(C)CCCNC(=O)C3CCCO3)nc(N)c2cc1OC (centres unmarked) the calls were PreQ1: inactive; SAM-II: inactive; TPP: inactive. With Nc1nn2c(-c3ccccc3Cl)nnc2s1 the screen gave PreQ1: inactive; SAM-II: inactive; TPP: inactive. With c1ccc2c(-c3cnn4cc(-c5ccc(N6CCNCC6)cc5)cnc34)ccnc2c1 the screen gave PreQ1: inactive; SAM-II: inactive; TPP: inactive. CCOc1ccc(C(O)Cn2c(=N)n(CCN3CCCCC3)c3ccccc32)cc1.Cl (centres unmarked) was scored PreQ1: inactive; SAM-II: inactive; TPP: inactive. COC(=O)c1ccc(NC(=O)CCN2CCN[C@H]3CS(=O)(=O)C[C@H]32)cc1 was scored PreQ1: inactive; SAM-II: inactive; TPP: inactive. Cc1nnc2c(NCCCN3CCN(c4cccc(Cl)c4)CC3)nc3ccccc3n12 was scored PreQ1: inactive; SAM-II: inactive; TPP: inactive. Calls for COc1ccc(-c2noc(-c3cccnc3NCc3ccccc3)n2)cc1 are PreQ1: inactive; TPP: inactive. C=C1C(=CC=C2CCCC3(C)[C@@H]([C@H](C)C=CC=CC(O)(CC)CC)CC[C@@H]23)C[C@@H](O)C[C@@H]1O (some centres unmarked) was scored PreQ1: inactive; SAM-II: inactive; TPP: inactive.

With Cc1ccc(C)c2c(C)c(C(=O)N3C[C@H]4CCC[C@@]4(CO)C3)[nH]c12 the screen gave PreQ1: inactive; SAM-II: inactive; TPP: inactive. With O=C(c1ccc2c(c1)OCO2)N1C[C@@H](CN2CCCCC2)[C@@H](CO)C1 the screen gave PreQ1: inactive; SAM-II: inactive; TPP: inactive. Cc1ccc(C)c(NC(=O)CCc2c(C)nc3nc(CN)nn3c2C)c1 was scored PreQ1: inactive; TPP: inactive. COc1cc(Cn2c(-c3nonc3N)nc3ccccc32)ccc1C was scored PreQ1: inactive; SAM-II: inactive; TPP: inactive. With COC(=O)c1ccc(-c2nc3cnccn3c2NC2CCCC2)cc1 the screen gave PreQ1: inactive; TPP: inactive. Calls for N#Cc1nccnc1N1CCN(C(=O)Cn2ccnc2)CC(O)C1 (centres unmarked) are PreQ1: inactive; SAM-II: inactive; TPP: inactive. CCOC(=O)CC1(C)NC(C(=O)O)C(C)(C)S1 (centres unmarked) was scored PreQ1: inactive; SAM-II: inactive; TPP: inactive. C=CCN1C(=O)C2(C(C#N)=C(N)OC3=C2C(=O)CC(C)(C)C3)c2ccccc21 (centres unmarked) was scored PreQ1: inactive; SAM-II: inactive; TPP: inactive.

With CC(C)NC(=O)[C@@H]1C[C@@H](N)CN1C(=O)c1cccc(-c2nc[nH]n2)c1 the screen gave PreQ1: inactive; SAM-II: inactive; TPP: inactive. For O[C@@H]1CN(c2ncnc3[nH]cnc23)CC[C@H]1c1ccc2ccccc2c1 the calls were PreQ1: inactive; SAM-II: inactive; TPP: inactive. For Cc1ccc(C2(O)CCN(C(=O)C(N)CC3CCCC3)CC2)nc1 (centres unmarked) the calls were PreQ1: inactive; SAM-II: inactive; TPP: inactive. Calls for Cc1cc(C)c2[nH]c(N)nc2n1 are PreQ1: inactive; SAM-II: inactive; TPP: inactive.

Some entries from above, unchanged:

SMILES,PreQ1,SAM-II,TPP
O[C@@H]1CN(c2ncnc3[nH]cnc23)CC[C@H]1c1ccc2ccccc2c1,inactive,inactive,inactive
CCOc1ccc(C(O)Cn2c(=N)n(CCN3CCCCC3)c3ccccc32)cc1.Cl (centres unmarked),inactive,inactive,inactive